Reference: paper doi:10.1101/2024.08.17.24311658
These are yes or no findings as the source states them, for the method shown. In cells and extracts the contact can be indirect. A result given as binding can be weak or reduced; the word gives no strength.

Chains of the proteins cited; added tags and fusions are not shown. Lines headed by an entry give the natural chain unless they say otherwise; changes in a name come on top.
UniProt Q06481: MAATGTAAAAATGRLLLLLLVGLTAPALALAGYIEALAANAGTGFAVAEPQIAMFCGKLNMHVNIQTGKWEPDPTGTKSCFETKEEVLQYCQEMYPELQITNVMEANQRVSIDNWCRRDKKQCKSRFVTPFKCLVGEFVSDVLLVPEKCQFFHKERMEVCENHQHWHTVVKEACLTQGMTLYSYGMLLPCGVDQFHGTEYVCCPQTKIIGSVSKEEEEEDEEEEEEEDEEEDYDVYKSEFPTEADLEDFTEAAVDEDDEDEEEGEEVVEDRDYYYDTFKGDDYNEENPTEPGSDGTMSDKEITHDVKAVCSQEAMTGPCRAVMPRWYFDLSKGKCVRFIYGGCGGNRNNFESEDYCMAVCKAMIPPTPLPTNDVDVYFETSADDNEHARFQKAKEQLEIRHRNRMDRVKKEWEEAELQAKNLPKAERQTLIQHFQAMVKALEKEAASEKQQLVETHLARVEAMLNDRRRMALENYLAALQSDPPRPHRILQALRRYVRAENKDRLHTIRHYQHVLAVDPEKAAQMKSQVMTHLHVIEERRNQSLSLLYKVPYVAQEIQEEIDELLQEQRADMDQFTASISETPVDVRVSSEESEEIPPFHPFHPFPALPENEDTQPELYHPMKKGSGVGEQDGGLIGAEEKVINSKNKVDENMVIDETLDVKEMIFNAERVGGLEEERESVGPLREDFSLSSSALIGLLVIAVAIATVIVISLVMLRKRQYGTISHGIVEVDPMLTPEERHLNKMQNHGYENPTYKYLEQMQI
UniProt P05067: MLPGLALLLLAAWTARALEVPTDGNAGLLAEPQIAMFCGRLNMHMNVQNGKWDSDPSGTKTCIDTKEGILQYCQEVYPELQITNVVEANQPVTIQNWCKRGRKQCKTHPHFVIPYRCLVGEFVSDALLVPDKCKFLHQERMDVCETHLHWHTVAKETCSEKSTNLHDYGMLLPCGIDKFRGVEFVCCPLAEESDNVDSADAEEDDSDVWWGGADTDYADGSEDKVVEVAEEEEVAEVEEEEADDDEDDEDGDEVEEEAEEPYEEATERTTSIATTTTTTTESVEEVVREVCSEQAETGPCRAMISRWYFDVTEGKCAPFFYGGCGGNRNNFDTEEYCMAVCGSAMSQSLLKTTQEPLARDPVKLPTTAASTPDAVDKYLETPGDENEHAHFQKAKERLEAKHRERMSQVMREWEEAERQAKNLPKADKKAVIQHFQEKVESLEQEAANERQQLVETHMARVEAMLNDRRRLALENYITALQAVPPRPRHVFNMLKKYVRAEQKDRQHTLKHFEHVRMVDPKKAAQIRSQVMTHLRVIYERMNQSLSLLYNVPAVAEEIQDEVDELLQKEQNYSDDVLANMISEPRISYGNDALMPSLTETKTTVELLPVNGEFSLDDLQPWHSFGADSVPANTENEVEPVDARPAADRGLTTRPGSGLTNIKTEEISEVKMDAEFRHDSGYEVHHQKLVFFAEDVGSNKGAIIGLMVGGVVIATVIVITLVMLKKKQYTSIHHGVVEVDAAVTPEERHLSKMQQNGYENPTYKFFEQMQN

Target: T1, mCherry-SNX17 (UniProt Q15036)
T1 sequence: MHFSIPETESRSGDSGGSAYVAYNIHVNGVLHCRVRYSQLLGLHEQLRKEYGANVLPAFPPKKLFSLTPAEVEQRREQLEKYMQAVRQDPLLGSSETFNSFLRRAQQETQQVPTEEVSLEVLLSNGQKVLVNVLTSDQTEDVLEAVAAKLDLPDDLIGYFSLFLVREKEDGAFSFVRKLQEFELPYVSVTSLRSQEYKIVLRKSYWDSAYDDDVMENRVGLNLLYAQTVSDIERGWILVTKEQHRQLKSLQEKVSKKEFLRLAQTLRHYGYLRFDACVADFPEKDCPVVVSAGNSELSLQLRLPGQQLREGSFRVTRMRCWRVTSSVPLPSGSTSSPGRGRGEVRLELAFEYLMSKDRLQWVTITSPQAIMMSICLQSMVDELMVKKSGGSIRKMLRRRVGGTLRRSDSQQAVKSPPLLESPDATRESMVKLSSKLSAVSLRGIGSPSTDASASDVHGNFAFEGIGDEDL
Assay: co-IP

GFP-transmembrane-cytoplasmic domain of Human-APLP2 (from UniProt Q06481) (domain or fragment)
binding: binds

GFP-transmembrane-cytoplasmic domain of Human-APP (from UniProt P05067) (domain or fragment)
binding: binds
